This is one part of the list. Most entries show no effect beyond the scatter of the controls.

Amino acid sequences for entries named in this document (tags omitted). A change or cut given only in a name is not applied to a line headed by its entry.
UniProt P27243: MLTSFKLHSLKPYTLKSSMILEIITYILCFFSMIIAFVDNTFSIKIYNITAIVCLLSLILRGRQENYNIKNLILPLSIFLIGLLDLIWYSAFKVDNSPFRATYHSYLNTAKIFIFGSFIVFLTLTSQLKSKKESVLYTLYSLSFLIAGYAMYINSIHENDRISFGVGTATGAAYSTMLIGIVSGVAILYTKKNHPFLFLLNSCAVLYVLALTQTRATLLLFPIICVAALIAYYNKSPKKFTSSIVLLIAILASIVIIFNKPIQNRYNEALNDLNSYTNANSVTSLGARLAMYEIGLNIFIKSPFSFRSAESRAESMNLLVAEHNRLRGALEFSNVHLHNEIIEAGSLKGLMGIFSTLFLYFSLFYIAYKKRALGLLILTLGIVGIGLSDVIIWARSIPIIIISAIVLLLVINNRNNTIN
UniProt P30138: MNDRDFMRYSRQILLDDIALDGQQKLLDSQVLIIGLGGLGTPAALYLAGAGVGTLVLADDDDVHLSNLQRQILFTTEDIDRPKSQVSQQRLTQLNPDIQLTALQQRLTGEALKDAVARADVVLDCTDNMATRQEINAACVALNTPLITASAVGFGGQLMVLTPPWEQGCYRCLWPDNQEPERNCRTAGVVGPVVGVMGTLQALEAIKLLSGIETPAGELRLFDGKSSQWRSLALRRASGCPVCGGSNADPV
UniProt P24554: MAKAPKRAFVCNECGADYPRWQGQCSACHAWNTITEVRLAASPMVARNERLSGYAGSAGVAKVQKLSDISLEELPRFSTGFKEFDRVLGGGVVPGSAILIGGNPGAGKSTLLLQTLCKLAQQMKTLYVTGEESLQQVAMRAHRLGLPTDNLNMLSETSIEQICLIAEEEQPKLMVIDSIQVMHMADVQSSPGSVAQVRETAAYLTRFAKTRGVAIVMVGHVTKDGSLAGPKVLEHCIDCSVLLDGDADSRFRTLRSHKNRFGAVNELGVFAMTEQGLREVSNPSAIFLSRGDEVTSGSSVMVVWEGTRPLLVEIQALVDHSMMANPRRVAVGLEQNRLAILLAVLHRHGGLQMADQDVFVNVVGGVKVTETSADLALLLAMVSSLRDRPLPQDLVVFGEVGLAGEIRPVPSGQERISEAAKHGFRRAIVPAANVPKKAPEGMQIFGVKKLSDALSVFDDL
UniProt P30178: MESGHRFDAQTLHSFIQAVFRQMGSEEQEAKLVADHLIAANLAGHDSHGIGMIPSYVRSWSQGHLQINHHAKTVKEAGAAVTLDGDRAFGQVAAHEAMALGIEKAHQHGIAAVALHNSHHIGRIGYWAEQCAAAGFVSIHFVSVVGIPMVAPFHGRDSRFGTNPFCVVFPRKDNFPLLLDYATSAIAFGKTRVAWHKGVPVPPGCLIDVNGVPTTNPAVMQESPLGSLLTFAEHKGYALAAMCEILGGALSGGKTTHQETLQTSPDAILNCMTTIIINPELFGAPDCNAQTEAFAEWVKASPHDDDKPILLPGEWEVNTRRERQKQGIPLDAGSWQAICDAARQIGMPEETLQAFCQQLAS
UniProt P33218: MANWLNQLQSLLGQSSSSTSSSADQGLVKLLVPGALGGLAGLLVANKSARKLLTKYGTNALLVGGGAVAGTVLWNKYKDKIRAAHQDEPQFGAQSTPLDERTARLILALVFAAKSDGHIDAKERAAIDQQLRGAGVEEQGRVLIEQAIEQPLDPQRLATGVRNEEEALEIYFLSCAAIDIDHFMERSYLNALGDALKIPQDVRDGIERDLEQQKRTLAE
UniProt P32162: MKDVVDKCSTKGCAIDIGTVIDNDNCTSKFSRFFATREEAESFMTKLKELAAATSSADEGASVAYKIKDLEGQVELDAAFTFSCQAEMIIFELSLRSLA
UniProt P24242: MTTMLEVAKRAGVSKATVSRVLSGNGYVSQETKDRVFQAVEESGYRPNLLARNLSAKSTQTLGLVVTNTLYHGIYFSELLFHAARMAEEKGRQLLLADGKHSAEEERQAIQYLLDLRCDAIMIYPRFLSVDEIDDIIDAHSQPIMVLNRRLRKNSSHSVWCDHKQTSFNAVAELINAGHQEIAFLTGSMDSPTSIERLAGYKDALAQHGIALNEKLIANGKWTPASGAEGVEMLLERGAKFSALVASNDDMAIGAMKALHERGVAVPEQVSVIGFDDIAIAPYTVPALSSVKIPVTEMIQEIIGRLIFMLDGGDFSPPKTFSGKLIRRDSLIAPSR
UniProt P24218: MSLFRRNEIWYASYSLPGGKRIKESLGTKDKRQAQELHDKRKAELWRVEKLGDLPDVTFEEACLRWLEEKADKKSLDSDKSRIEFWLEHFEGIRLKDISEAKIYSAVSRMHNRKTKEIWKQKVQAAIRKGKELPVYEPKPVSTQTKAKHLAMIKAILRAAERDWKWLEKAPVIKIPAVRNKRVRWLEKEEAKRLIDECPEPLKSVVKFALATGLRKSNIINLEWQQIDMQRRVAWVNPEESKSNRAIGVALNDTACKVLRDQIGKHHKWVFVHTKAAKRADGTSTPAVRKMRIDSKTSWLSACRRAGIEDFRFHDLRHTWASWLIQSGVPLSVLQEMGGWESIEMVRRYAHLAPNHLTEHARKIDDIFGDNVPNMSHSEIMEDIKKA
UniProt P32173: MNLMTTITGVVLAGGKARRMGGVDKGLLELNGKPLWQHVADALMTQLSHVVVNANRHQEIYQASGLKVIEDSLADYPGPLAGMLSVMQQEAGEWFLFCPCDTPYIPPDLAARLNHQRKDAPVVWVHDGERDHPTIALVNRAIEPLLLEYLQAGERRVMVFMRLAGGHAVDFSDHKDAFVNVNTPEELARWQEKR
UniProt P31130: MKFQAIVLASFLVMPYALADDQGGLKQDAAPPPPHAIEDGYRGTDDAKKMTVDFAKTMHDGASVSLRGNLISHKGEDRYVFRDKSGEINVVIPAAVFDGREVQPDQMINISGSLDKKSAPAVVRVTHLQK
UniProt P33225: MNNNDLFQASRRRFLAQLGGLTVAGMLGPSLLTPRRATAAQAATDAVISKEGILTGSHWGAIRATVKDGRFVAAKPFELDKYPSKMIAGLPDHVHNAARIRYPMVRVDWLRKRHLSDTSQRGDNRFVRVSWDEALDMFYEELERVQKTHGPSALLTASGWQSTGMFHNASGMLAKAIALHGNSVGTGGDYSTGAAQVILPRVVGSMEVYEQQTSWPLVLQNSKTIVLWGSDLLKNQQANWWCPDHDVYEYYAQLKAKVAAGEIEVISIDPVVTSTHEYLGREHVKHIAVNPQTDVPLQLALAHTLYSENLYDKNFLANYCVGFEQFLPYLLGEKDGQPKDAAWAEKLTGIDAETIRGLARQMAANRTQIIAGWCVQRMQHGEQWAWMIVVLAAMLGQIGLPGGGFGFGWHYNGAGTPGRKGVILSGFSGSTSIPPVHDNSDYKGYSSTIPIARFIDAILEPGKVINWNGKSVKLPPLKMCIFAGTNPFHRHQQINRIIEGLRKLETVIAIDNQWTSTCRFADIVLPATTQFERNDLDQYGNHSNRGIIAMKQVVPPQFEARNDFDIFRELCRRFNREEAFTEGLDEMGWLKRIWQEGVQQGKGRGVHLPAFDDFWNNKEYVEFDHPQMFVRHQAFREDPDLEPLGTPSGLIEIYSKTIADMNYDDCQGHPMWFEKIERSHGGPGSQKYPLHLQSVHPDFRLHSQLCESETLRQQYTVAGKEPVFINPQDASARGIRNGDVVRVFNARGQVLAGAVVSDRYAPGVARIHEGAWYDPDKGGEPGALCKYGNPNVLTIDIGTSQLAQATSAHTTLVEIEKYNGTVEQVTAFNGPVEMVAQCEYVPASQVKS
UniProt P28630: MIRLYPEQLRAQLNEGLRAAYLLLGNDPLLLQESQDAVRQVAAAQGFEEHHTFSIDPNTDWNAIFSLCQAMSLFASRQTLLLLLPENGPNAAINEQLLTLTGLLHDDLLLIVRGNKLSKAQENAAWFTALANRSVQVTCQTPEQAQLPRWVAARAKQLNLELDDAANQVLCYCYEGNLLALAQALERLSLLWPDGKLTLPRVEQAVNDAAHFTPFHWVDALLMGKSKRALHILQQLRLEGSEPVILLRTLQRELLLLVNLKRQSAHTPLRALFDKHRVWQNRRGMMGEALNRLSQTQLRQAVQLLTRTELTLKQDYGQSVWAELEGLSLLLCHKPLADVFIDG
UniProt P24188: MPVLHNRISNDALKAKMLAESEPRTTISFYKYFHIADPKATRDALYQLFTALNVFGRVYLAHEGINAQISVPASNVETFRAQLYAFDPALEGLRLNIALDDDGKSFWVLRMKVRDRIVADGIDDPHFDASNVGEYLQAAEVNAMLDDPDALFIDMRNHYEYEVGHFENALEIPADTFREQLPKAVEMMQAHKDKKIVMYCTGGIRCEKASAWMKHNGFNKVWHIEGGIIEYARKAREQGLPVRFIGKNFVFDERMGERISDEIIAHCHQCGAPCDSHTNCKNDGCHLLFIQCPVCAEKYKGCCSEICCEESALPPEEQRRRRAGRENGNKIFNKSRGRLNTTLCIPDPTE
UniProt P30177: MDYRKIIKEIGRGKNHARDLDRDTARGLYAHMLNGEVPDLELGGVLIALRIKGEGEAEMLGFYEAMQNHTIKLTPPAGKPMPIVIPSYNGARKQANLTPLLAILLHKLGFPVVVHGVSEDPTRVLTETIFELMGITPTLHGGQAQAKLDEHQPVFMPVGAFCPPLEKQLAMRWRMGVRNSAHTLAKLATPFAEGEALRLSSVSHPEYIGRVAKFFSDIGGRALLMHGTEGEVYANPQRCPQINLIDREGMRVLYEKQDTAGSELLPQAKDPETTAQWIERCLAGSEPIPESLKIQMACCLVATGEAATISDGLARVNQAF
UniProt P33590: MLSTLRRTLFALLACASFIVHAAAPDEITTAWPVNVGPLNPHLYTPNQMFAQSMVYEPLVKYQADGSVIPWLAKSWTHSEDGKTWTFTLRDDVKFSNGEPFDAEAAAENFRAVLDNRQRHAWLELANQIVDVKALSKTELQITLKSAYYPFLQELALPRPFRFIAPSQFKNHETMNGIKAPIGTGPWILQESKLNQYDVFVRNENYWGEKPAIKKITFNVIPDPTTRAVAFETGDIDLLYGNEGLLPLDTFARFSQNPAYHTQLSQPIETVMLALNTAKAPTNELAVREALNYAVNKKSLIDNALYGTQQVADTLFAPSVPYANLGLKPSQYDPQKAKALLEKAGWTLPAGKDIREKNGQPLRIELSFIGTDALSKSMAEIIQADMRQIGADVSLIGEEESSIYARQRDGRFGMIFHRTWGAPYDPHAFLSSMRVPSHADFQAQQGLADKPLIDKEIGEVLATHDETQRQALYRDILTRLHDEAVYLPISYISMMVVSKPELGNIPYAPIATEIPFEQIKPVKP
UniProt P25741: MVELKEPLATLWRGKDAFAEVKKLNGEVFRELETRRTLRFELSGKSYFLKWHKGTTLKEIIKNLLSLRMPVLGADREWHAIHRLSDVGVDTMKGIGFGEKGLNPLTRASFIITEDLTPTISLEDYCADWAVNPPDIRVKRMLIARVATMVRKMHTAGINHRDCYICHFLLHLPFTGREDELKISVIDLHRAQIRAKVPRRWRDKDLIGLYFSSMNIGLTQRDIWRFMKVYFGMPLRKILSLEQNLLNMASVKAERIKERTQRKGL
UniProt P33343: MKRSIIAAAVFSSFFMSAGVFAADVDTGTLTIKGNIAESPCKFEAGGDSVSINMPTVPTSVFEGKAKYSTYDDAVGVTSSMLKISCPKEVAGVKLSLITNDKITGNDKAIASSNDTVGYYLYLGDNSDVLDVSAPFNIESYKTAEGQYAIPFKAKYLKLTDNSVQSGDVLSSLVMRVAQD
UniProt P25742: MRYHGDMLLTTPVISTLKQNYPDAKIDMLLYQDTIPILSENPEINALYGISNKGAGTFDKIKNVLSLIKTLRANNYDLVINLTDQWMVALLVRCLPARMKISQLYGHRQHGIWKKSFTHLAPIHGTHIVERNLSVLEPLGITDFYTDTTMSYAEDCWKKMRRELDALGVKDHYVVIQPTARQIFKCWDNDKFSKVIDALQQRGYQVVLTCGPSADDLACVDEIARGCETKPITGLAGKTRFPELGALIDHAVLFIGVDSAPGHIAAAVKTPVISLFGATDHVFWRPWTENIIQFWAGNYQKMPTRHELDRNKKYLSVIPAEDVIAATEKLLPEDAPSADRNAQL
UniProt P26218: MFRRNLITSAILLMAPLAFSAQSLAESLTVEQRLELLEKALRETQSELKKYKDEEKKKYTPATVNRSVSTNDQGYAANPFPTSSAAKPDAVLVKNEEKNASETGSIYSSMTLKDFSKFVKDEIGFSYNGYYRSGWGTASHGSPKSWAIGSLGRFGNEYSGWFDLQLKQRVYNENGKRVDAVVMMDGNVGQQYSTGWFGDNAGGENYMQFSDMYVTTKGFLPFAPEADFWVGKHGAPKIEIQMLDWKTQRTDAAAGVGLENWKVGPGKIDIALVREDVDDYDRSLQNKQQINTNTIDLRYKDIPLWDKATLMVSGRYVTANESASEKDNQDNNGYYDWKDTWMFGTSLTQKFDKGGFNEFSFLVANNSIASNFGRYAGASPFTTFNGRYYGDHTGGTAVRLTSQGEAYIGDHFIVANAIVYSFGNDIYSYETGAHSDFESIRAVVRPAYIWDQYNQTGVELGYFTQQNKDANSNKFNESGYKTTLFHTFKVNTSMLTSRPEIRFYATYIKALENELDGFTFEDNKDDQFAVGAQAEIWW

Results on 35 targets are retold here after the supplement of paper PMC12819154, “High-throughput peptide-centric local stability assay extends protein–ligand identification to membrane proteins, tissues and bacteria” (Nature Structural & Molecular Biology, 2025).

Compound in this experiment: CC1(C)S[C@@H]2[C@H](NC(=O)[C@H](N)c3ccccc3)C(=O)N2[C@H]1C(=O)O [ampicillin]
The experiment can be described thus: log2 fold change of tryptic peptide abundance, ligand vs vehicle (limited proteolysis) (log2 ratio); higher = more trypsin-susceptible (destabilized). As to conditions: ligand concentration: 10 uM; sample: E. coli crude lysate.
In the case of “UniProt P27243 (peptide sequence: QENYNIK, peptide start residue: 64)”, the log2 fold change stood at 0.0252. Take “UniProt P30138 (peptide sequence: LLSGIETPAGELR, peptide start residue: 208)”: the log2 fold change was 0.169. The figure for “UniProt P32681 (peptide sequence: FDDRGDLSFMQR, peptide start residue: 108)” is 0.0253; for “UniProt P24554 (peptide sequence: KAPEGMQIFGVK, peptide start residue: 437)” it is -0.181; for “UniProt P27238 (peptide sequence: IAEYAPGAR, peptide start residue: 78)” it is -0.0586. As for “UniProt P30178 (peptide sequence: AFGQVAAHEAMALGIEK, peptide start residue: 88)”, the log2 fold change is -0.114. As to “UniProt P27240 (peptide sequence: IIDLSGKR, peptide start residue: 175)”, the log2 fold change is -0.17.

Take “UniProt P28632 (peptide sequence: RPGALQGEIAIAIPAHVR, peptide start residue: 21)”: the log2 fold change was -0.935. As to “UniProt P31063 (peptide sequence: EGDTLDCR, peptide start residue: 61)”, the log2 fold change is -0.0761. Consider “UniProt P32674 (peptide sequence: EVEKYQNPR, peptide start residue: 600)”, for which the log2 fold change was found to be 0.911.

Take “UniProt P33218 (peptide sequence: ERAAIDQQLR, peptide start residue: 123)”: the log2 fold change was -0.636. The figure for “UniProt P32162 (peptide sequence: DVVDKCSTK, peptide start residue: 3)” is 0.282; for “UniProt P24242 (peptide sequence: QAIQYLLDLR, peptide start residue: 108)” it is -0.54; for “UniProt P33363 (peptide sequence: LISVGPDNPKEAIR, peptide start residue: 56)” it is -0.767. On to “UniProt P33355 (peptide sequence: GKDESAPALEPERR, peptide start residue: 70)”, for which the log2 fold change is 0.221. For the target “UniProt P32144 (peptide sequence: HDQLLMLIAER, peptide start residue: 12)”, the log2 fold change was -0.195.

Take “UniProt P32053 (peptide sequence: EFIFPSR, peptide start residue: 303)”: the log2 fold change is -0.233. For “UniProt P24218 (peptide sequence: ELPVYEPKPVSTQTK, peptide start residue: 132)”, the log2 fold change is -0.527.

In the case of “UniProt P32173 (peptide sequence: KDAPVVWVHDGERDHPTIALVNR, peptide start residue: 118)”, the log2 fold change was -0.689. Consider “UniProt P31130 (peptide sequence: DKSGEINVVIPAAVFDGR, peptide start residue: 83)”, for which the log2 fold change was determined as 0.138. In the case of “UniProt P33225 (peptide sequence: GIRNGDVVR, peptide start residue: 734)”, the log2 fold change was -0.0801. Regarding “UniProt P28630 (peptide sequence: LSLLWPDGKLTLPR, peptide start residue: 188)”, the log2 fold change is -0.467. Consider “UniProt P31224 (peptide sequence: VLNEVTHYYLTK, peptide start residue: 590)”, for which the log2 fold change is -0.501. The same measure for “UniProt P32669 (peptide sequence: DAQGMVEEAKR, peptide start residue: 64)”: 0.336. Turning to “UniProt P24188 (peptide sequence: KIVMYCTGGIRCEK, peptide start residue: 195)”, the log2 fold change is -0.335.

For the target “UniProt P30177 (peptide sequence: FFSDIGGR, peptide start residue: 214)”, the log2 fold change is 0.135.

Take “UniProt P33590 (peptide sequence: EKNGQPLR, peptide start residue: 356)”: the log2 fold change was -0.307. The figure for “UniProt P25741 (peptide sequence: EPLATLWR, peptide start residue: 6)” is -0.205; for “UniProt P24193 (peptide sequence: RTLDLPHAEPLPR, peptide start residue: 322)” it is 0.222. The figure for “UniProt P31660 (peptide sequence: KSVALSGVPAGNTALCTVGK, peptide start residue: 18)” is 0.244; for “UniProt P32157 (peptide sequence: RLSGKIEDFSR, peptide start residue: 209)” it is 0.21; for “UniProt P26647 (peptide sequence: AHGTIAEVVNHFK, peptide start residue: 124)” it is 0.744. On to “UniProt P33343 (peptide sequence: LSLITNDKITGNDK, peptide start residue: 95)”, for which the log2 fold change was determined as 0.156.

For “UniProt P25742 (peptide sequence: QHGIWKK, peptide start residue: 109)”, the log2 fold change is 0.378. For “UniProt P26218 (peptide sequence: DFSKFVK, peptide start residue: 114)”, the log2 fold change came out at 0.16.
